Results as given in article PMC8511049, “hSSB2 (NABP1) is required for the recruitment of RPA during the cellular response to DNA UV damage”.
These are yes or no findings as the source states them, for the method shown. For part of these data: Binding seen in cells or lysates may run through a third protein.

Amino acid sequences for entries named in this document (tags omitted). A change or cut given only in a name is not applied to a line headed by its entry.
UniProt Q96AH0: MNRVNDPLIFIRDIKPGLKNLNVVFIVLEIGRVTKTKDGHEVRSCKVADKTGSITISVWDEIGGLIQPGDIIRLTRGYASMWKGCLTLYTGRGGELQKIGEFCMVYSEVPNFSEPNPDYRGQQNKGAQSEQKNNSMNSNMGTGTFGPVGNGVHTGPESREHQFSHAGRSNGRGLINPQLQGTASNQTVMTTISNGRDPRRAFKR
UniProt P15927: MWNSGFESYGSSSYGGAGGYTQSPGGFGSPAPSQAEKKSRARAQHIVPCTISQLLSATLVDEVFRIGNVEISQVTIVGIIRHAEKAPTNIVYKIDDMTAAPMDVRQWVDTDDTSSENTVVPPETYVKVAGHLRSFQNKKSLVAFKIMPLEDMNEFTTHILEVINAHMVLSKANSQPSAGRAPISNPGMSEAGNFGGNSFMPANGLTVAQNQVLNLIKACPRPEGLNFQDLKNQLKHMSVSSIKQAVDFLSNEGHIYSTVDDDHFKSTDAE
UniProt Q01831: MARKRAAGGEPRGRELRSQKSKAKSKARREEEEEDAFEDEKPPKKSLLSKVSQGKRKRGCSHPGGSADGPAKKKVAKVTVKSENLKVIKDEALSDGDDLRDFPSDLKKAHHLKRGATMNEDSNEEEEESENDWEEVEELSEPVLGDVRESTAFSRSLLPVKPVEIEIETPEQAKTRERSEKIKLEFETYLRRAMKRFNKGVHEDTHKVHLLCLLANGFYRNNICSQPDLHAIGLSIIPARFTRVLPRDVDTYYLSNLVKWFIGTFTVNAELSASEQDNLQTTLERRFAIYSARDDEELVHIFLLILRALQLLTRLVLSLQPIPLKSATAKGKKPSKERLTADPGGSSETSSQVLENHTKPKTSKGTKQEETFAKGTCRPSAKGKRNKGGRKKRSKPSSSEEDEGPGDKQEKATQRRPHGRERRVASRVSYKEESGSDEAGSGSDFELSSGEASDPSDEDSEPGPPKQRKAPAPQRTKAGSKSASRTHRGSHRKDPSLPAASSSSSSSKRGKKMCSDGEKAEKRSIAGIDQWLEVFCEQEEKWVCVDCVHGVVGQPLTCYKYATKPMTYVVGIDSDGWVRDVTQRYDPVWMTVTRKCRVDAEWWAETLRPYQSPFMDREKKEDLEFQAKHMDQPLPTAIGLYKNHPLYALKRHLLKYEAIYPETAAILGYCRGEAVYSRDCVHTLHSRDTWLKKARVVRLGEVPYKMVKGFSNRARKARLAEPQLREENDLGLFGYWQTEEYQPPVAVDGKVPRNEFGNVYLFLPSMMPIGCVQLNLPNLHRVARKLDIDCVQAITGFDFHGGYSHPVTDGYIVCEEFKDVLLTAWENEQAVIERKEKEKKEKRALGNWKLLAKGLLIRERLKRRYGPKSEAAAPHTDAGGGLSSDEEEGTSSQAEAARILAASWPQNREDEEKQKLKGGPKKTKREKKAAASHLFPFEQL

How the values were obtained:
[1] = target: DNA-binding domain of hSSB2 (hSSB2-OB, residues 1–132) (human) (UniProt Q96AH0); experiment: SEC-MALS; 250 µg purified hSSB2-OB injected onto a Superose 12 10/30 column with in-line MALLS detector; 20 mM Tris pH 7, 100 mM NaCl, 1 mM EDTA, 1 mM TCEP (reducing); monomeric BSA as reference; both purified
[2] = target: human Single-Stranded DNA Binding protein 2, hSSB2 (human) (UniProt Q96AH0); experiment: co-IP; endogenous proteins from sonicated cell lysate (20 mM HEPES pH 8.0, 150 mM KCl, 1 mM EDTA, 0.05% Igepal) precipitated with 2 µg anti-OBFC2A (hSSB2) or XPC antibody on protein G Dynabeads, 90 min at 4 °C, 6 washes, western blot; time points examined

Row | Substance | binding [1] | binding [2]
1 | DNA-binding domain of hSSB2 (hSSB2-OB, residues 1–132) (from UniProt Q96AH0 1-132) (domain or fragment) | no binding (tested: 250 µg injected) | 
2 | Replication Protein A (RPA32) (from UniProt P15927 1-270) |  | no binding
3 | Xeroderma Pigmentosum group C (XPC) (from UniProt Q01831 1-940) |  | no binding
